Like-named read-outs stand apart in the source and are kept apart here. Results are given in words; binding and its absence hold for the method and conditions named. Some binding calls cover weakened binding; strength is not graded here. Sequences can lack the tags named with a protein.
T1: Saccharomyces cerevisiae Elf1 (S. cerevisiae) (UniProt P36053)
T1 sequence: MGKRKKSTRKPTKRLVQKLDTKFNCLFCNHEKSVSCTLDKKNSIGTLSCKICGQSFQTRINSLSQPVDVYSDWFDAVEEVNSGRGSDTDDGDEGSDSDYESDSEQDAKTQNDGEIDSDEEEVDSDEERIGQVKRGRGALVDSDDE

Protein sequences, listed by entry. Tags and fused reporters are not part of them.
UniProt Q00416: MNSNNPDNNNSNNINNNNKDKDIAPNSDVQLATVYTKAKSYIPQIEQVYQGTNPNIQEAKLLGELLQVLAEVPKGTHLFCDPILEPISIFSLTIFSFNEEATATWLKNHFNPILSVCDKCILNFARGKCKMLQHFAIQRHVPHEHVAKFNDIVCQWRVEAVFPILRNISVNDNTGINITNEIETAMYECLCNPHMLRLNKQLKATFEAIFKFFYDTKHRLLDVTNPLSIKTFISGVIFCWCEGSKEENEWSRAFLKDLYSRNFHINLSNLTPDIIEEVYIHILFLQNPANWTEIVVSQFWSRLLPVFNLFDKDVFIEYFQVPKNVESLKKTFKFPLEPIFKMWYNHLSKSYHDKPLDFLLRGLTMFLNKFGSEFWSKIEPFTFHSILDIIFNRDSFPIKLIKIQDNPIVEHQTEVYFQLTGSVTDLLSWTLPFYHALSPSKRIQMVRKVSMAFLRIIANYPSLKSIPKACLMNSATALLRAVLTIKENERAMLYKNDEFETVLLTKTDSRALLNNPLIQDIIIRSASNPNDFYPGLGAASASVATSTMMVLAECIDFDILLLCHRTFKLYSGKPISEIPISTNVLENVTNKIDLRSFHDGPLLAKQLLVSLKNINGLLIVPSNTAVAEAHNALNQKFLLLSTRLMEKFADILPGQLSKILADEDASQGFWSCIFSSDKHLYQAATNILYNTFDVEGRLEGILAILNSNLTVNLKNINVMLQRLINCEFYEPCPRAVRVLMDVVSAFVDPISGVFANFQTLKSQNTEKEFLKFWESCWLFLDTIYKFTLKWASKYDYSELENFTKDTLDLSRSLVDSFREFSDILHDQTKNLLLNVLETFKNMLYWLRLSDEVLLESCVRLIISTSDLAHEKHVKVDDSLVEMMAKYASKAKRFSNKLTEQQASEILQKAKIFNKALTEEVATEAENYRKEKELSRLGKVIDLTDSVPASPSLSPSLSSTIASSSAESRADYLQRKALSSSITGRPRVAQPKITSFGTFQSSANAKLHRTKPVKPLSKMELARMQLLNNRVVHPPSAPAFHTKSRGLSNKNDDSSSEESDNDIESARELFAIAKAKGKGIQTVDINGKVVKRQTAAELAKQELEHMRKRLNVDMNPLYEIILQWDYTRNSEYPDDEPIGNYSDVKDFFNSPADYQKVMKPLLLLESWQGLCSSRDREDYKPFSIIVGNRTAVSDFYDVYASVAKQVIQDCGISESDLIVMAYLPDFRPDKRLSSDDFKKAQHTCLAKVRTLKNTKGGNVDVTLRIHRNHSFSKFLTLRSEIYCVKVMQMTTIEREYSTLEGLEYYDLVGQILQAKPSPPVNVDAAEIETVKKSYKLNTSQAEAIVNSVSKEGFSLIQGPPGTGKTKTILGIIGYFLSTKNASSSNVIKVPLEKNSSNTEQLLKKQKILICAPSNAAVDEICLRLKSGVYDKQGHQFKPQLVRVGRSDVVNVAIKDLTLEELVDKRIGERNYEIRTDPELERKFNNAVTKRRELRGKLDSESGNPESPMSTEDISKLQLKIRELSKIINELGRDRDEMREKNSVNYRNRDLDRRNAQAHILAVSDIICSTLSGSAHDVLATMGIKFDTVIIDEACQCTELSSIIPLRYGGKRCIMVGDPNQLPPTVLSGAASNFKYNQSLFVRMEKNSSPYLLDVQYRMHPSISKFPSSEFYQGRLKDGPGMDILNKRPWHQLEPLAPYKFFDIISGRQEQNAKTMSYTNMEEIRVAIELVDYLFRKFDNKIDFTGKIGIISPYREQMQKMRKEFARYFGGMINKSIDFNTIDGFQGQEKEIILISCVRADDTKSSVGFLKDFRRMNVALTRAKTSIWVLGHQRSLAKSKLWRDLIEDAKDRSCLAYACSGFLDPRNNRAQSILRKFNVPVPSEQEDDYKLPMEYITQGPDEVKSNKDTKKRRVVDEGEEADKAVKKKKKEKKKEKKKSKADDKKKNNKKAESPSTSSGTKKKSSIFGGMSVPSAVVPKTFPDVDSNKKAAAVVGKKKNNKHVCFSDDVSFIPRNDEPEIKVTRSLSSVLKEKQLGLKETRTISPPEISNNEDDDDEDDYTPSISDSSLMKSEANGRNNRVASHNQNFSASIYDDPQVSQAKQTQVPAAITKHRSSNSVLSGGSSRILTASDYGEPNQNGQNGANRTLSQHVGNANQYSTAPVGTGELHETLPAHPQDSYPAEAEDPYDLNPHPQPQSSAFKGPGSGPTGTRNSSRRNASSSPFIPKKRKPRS

T2: Saccharomyces cerevisiae Spt5 (S. cerevisiae) (UniProt P27692)
T2 sequence: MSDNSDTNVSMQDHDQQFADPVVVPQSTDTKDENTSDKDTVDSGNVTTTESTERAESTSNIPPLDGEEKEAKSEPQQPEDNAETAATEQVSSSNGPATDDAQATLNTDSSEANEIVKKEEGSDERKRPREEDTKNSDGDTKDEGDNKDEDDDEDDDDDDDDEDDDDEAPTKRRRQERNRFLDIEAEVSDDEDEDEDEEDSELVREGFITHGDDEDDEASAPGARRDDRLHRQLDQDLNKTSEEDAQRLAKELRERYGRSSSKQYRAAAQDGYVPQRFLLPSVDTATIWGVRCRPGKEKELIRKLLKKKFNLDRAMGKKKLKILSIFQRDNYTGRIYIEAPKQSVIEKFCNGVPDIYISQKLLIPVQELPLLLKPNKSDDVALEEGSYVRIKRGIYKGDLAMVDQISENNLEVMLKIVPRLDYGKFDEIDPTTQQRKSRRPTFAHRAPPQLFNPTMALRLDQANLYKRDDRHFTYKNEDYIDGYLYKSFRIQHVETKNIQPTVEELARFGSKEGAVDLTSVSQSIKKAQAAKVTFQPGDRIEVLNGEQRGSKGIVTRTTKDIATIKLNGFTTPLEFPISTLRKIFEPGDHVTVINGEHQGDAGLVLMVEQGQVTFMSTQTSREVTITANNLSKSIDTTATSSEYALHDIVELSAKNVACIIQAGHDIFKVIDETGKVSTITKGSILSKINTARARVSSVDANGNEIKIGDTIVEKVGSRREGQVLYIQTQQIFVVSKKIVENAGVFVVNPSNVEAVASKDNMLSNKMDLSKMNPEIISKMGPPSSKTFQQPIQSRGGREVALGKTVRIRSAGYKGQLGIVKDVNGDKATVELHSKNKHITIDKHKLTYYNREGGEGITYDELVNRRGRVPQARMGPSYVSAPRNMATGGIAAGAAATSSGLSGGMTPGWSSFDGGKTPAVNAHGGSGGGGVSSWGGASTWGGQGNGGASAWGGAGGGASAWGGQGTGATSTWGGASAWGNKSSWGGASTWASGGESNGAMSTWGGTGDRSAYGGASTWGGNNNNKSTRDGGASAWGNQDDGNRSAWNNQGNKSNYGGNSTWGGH

T3: Saccharomyces cerevisiae Spt4 (S. cerevisiae) (UniProt P32914)
T3 sequence: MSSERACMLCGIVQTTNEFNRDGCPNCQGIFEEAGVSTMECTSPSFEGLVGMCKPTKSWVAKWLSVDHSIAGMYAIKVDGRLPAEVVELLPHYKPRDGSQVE


What was measured:
Test in all cases: cryo-EM structure; pre-TC reconstituted from purified CDK7-phosphorylated Pol II, Spt4-Spt5 complex, Elf1 and Sen1 on a DNA-RNA scaffold with a 35-nt RNA; buffer EM (25 mM HEPES pH 7.6, 100 mM KCl, 5 mM MgCl2, 3 mM TCEP); 10-30% sucrose gradient with crosslinking (GraFix); apo state, no nucleotide; both purified
[1] = molecular target: T1, Saccharomyces cerevisiae Elf1 (S. cerevisiae)
[2] = molecular target: T2, Saccharomyces cerevisiae Spt5 (S. cerevisiae)
[3] = molecular target: T3, Saccharomyces cerevisiae Spt4 (S. cerevisiae)
[4] = molecular target: T2, Saccharomyces cerevisiae Spt5 (S. cerevisiae); remark: listed apart in the source

| binding [1] | binding [2] | binding [3] | binding [4] | Molecule |
| --- | --- | --- | --- | --- |
| no binding | no binding | no binding | – | Saccharomyces cerevisiae Sen1 full length (Sen1 FL) (from UniProt Q00416 1-2231) (enzyme) |
| – | – | – | binds | Saccharomyces cerevisiae Spt4 (protein, UniProt P32914 1-102) MSSERACMLCGIVQTTNEFNRDGCPNCQGIFEEAGVSTMECTSPSFEGLVGMCKPTKSWVAKWLSVDHSIAGMYAIKVDGRLPAEVVELLPHYKPRDGSQVE |
